Measurements: PubChem BioAssay AID504467 (National Center for Advancing Translational Sciences (NCATS), 2011)
The whole screen tested about 330,000 compounds, of which about 7,700 (2.3%) were called active. The inconclusive results got no clear call from the source; some entries with a clear call stand among them for comparison. Calls come from the whole dose curve; as a rule, active = well fitted inhibition curve with a large enough effect; inconclusive = small, poorly fitted or top-dose-only effect, or effect the other way; inactive = flat fitted curve, though single readings scatter. Where the call is inconclusive, the potency comes from a doubtful curve fit.

test: qHTS screen for small molecules that inhibit ELG1-dependent DNA repair in human embryonic kidney (HEK293T) cells expressing luciferase-tagged ELG1; details: HEK293T ELG1-luciferase reporter, luminescence, 16 h, DNA damage induced by 5-fluorouridine; activity change, negative = inhibition: at 46.1 µM (top of the series); note: nearly all actives have a fitted effect of over 55% in size
Summary of the method: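 Luminescence from the luciferase reporter, measured 30 min after ONE-Glo reagent at room temperature, was the read-out. Beforehand, 2,000 cells per well were exposed for 16 hr at 37 °C to 5-fluorouridine together with compound or vehicle.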
% is set by controls: 0 for no effect and ±100 for the full control effect; potency is the fitted concentration of half-maximal effect.

Row | Structure (SMILES) | Potency | activity change, negative = inhibition
1 | Cc1nnc(SCc2cccc3ccccc23)s1 | inconclusive: 20.6 µM [activator, partial curve] | 
2 | COc1cc(CNC(=O)C2CC2)ccc1OCc1ccccc1 | inconclusive: 0.058 µM [activator, partial curve, poor fit] | 
3 | Cc1ccc(S(=O)(=O)c2c(C)nn(C(C)(C)C)c2OC(=O)C2CCCC2)cc1 |  | inactive: -11.8%
4 | Cc1nc2ccc(NC(=O)C3=NN(C)C(=O)CC3)cc2s1 | inconclusive: 14.6 µM [activator, single point] | 
5 | CC(=O)Nc1cccc(/C(C)=N/NC(=O)c2ccc(CN3CCOCC3)cc2)c1 | inconclusive: 0.58 µM [activator, partial curve, poor fit] | 
6 | COc1cc2c(cc1OC)C(C)N(CC(=O)Nc1ccc(C)c(S(=O)(=O)N3CCOCC3)c1)CC2 (stereo unspecified) | inconclusive: 7.3 µM [inhibitor, partial curve] | 
7 | COc1ccc(C(CNC(=O)COc2cc(C)ccc2Cl)N2CCCCC2)cc1 (stereo unspecified) | inconclusive: 25.9 µM [inhibitor, single point] | 
8 | NC(=O)c1ccc2c(=O)n3c(-c4cccs4)csc3nc2c1 | inconclusive: 23.1 µM [activator, partial curve] | 
9 | COCCn1c(SCC(=O)Nc2cc(C)on2)nc2c(c1=O)SC(C)C2 (stereo unspecified) |  | inactive: 21.9%
10 | CCOc1ccc(OCC)c(NC(=O)C2CCCN2S(=O)(=O)c2cccc3cccnc23)c1 (stereo unspecified) | inconclusive: 16.4 µM [inhibitor, partial curve] | 
11 | Cc1ccnc(N(C(=O)c2cccs2)C(=O)c2cccs2)c1 | inconclusive: 10.3 µM [activator, partial curve] | 
12 | C=CCn1c(=O)/c(=C/c2ccc(O)cc2)s/c1=C(/C#N)c1nnc2n1CCCCC2 | inconclusive: 20.6 µM [inhibitor, single point] | 
13 | Cc1cnn(CCC(=O)NNC(=S)Nc2cccc(Cl)c2)c1 | inconclusive: 1.58 µM [inhibitor, partial curve, poor fit] | 
14 | O=C(Nc1ccc(Oc2cccnc2)cc1)c1ccccc1Cl |  | inactive: -3.87%
15 | CCCCn1c(=O)n(CC(O)c2ccccc2)c(=O)c2c1ncn2C1CCCC1 (stereo unspecified) | inconclusive: 29.1 µM [inhibitor, single point] | 
16 | O=C(CSc1ncnc2c1nnn2-c1ccc(F)cc1)NCc1ccco1 | inconclusive: 14.6 µM [activator, partial curve, poor fit] | 
17 | COc1ccc(S(=O)(=O)N2CCOCC2)cc1NC(=O)c1ccc(OCC(C)C)c(OC)c1 | inconclusive: 18.3 µM [inhibitor, single point] | 
18 | Cc1ccc2cc3cc(C(=O)NCCCN4CCc5ccccc5C4)oc3nc2c1 | inconclusive: 29.1 µM [inhibitor, single point] | 
19 | Cc1c(F)cccc1NS(=O)(=O)c1ccc2c(c1)c(=O)n(C)c(=O)n2C | inconclusive: 23.1 µM [inhibitor, single point] | 
20 | COc1c(C)cccc1C(=O)Nc1cc(Cl)ccc1N1CCOCC1 | inconclusive: 29.1 µM [inhibitor, single point] | 
21 | Cc1ccc(C(=O)OCC(=O)NC2CCCC(C)C2C)cc1S(=O)(=O)N1CCCCC1 (stereo unspecified) | inconclusive: 16.4 µM [inhibitor, single point] | 
22 | S=C(Nc1ccccn1)NC1CCCC1 |  | inactive: -1.15%

Reformatted: results already given.
Cc1ccc(S(=O)(=O)c2c(C)nn(C(C)(C)C)c2OC(=O)C2CCCC2)cc1
  activity change, negative = inhibition: inactive: -11.8%
Cc1nc2ccc(NC(=O)C3=NN(C)C(=O)CC3)cc2s1
  Potency: inconclusive: 14.6 µM [activator, single point]
CC(=O)Nc1cccc(/C(C)=N/NC(=O)c2ccc(CN3CCOCC3)cc2)c1
  Potency: inconclusive: 0.58 µM [activator, partial curve, poor fit]

Later entries

Row | Structure (SMILES) | Potency | activity change, negative = inhibition
23 | O=C(Oc1cccc(-c2cnc3ccccc3n2)c1)c1ccco1 | inconclusive: 5.17 µM [activator, partial curve] | 
24 | O=C(c1cc(-c2cccnc2)nc2ccccc12)N1CCCc2ccccc21 | active: 20.6 µM | 
25 | Cc1nc(N2CCN(S(=O)(=O)c3ccccc3C#N)CC2)c2c(-c3ccccc3)csc2n1 | active: 11.6 µM | 
26 | c1cc(CNc2ccc(N3CCOCC3)cc2)ccn1 | inconclusive: 32.6 µM [activator, partial curve, poor fit] | 
27 | CCOC(=O)CSc1ncnc2c1cnn2-c1ccc(C)cc1 | inconclusive: 25.9 µM [activator, single point] | 
28 | Cc1cccc(N2C(=O)CN(Cc3ccccc3)C2=S)c1 |  | inactive: 0.353%
29 | OC1CCN(C(=S)NCCc2ccccc2)CC1 | inconclusive: 25.9 µM [activator, single point] | 
30 | COC(=O)c1ccccc1NC(=O)/C=C/c1cc(OC)c(OC)c(OC)c1 | inconclusive: 14.6 µM [inhibitor, partial curve] | 
31 | Cc1ccc(-n2nc(C)c3c2OC(N)=C(C#N)C3c2ccccc2F)cc1 (stereo unspecified) | inconclusive: 2.31 µM [activator, partial curve, poor fit] | 
32 | COc1ccc(-c2noc(CCC(=O)NCCc3cccc(C)c3)n2)cc1 | inconclusive: 29.1 µM [inhibitor, single point] | 
33 | O=C(C[n+]1cccc(C(=O)N/N=C/c2ccc(Br)cc2)c1)c1ccccc1 |  | inactive: 15.3%
34 | CC[C@]1(C(=O)OC)[C@H]2C(=O)N(Cc3ccccc3)C(=O)[C@H]2[C@H]2CN=C(SCc3ccc(Cl)cc3)N21 | inconclusive: 25.9 µM [inhibitor, partial curve] | 
35 | O=C(CSc1ncccn1)N/N=C/c1ccc2c(c1)OCO2 | inconclusive: 14.6 µM [activator, partial curve] | 
36 | Cc1nc(C)c(C(=O)Nc2ncc([N+](=O)[O-])s2)o1 | inconclusive: 1.64 µM [activator, partial curve] | 
37 | CCCC(CCC(=O)Nc1ccc(S(N)(=O)=O)cc1)C(=O)O (stereo unspecified) | inconclusive: 23.1 µM [activator, partial curve, poor fit] | 
38 | Cc1ccc(NC(=O)COC(=O)c2cc(=O)c3cc(F)ccc3o2)cc1 |  | inactive: 24.6%
39 | CC(=O)Nc1ccc(NC(=S)NC(=O)C2CC2)cc1 | inconclusive: 23.1 µM [activator, partial curve] | 
40 | COc1ccc2cc(CCOC3CCCCO3)ncc2c1 (stereo unspecified) | inconclusive: 1.46 µM [activator, full curve] | 
41 | CC(Oc1ccccc1)C(=O)N/N=C/c1ccccn1 (stereo unspecified) | inconclusive: 18.3 µM [inhibitor, partial curve, poor fit] | 
42 | C=CCn1c(SCC(=O)Nc2sccc2C(N)=O)nc2sc(CC)cc2c1=O | inconclusive: 25.9 µM [inhibitor, single point] | 
43 | COc1ccc(CCNC(=O)NC23CC4CC(CC(C4)C2)C3)cc1 |  | inactive: 12.7%
44 | CC(=O)N1c2ccc(S(=O)(=O)NCCC(=O)NCCc3ccc(Cl)cc3)cc2CC1C (stereo unspecified) |  | inactive: -25.1%

Row | Structure (SMILES) | Potency | activity change, negative = inhibition
45 | c1ccc2oc(-c3csc(N4CCOCC4)n3)cc2c1 | inconclusive: 2.31 µM [activator, partial curve] | 
46 | CCCCCCCCCCSc1n[nH]c(N)n1 | inconclusive: 18.4 µM [activator, partial curve, poor fit] | 
47 | COc1cc(C(=O)NNC(=O)c2ccccc2OCc2c(C)noc2C)cc(OC)c1OC |  | inactive: -19.4%
48 | CC(=O)Nc1ccc(NC(=O)C2CCN(C(=O)c3cccs3)CC2)cc1 |  | inactive: 13.2%
49 | O=C(CN1C(=O)NC2(CCCCC2)C1=O)Nc1ccc2[nH]c(=O)[nH]c2c1 | inconclusive: 7.08 µM [activator, partial curve, poor fit] | 
50 | COc1ccc(OC)c(S(=O)(=O)N2CCC(C(=O)Nc3cc(C)ccc3C)CC2)c1 | inconclusive: 20.6 µM [inhibitor, single point] | 
51 | NNC(=O)CNC(c1ccccc1)c1cc(Br)ccc1NC(=O)CCN1CCOCC1 (stereo unspecified) |  | inactive: 22.1%
52 | CCOC(=O)c1c(NC(=O)c2c(Br)cnn2C)c(C#N)nn1-c1ccccc1 | inconclusive: 10.3 µM [inhibitor, single point] | 
53 | Cc1ccc(SCC(=O)N(Cc2nc(-c3ccccc3)no2)C(C)C)cc1 |  | inactive: -29.2%
54 | NS(=O)(=O)c1ccc(CCNC(=O)c2cncc(Br)c2)cc1 | inconclusive: 0.082 µM [inhibitor, full curve] | 
55 | O=C(COC(=O)c1ccc2c(c1Cl)C(=O)c1ccccc1C2=O)NC1CC1 | inconclusive: 14.6 µM [activator, partial curve] | 
56 | Cc1ccnc(NC(=O)C2CC(=O)N(Cc3ccccc3)C2)c1 (stereo unspecified) | inconclusive: 3.66 µM [activator, partial curve] | 
57 | COc1ccc(NC(=O)Nc2ccccc2F)cc1 | inconclusive: 0.92 µM [activator, partial curve] | 
58 | COc1ccc(CCNC(=O)CN(c2cc(C)cc(C)c2)S(=O)(=O)c2c(C)noc2C)cc1OC |  | inactive: -2.23%
59 | COc1ccc(/C(N)=N/OC(=O)c2cccc([N+](=O)[O-])c2C)cc1OC | inconclusive: 29.1 µM [activator, single point] | 
60 | CCN(C(=O)CN1CCN(c2cccc(C(F)(F)F)c2)CC1)c1c(N)n(Cc2ccccc2)c(=O)[nH]c1=O | inconclusive: 0.0041 µM [inhibitor, full curve, poor fit] | 
61 | Cc1ccc(NC(=O)N/C=C/c2ccccc2)cc1 | inconclusive: 3.66 µM [activator, full curve] | 
62 | CC(C)NS(=O)(=O)c1ccc(NC(=O)C(C)Oc2ccc(C(=O)c3ccccc3)cc2)cc1 (stereo unspecified) | inconclusive: 20.6 µM [inhibitor, single point] | 
63 | CC(C)OP(=O)(OC(C)C)C(Nc1ccccc1)c1cccc([N+](=O)[O-])c1 (stereo unspecified) | inconclusive: 29.1 µM [inhibitor, single point] | 
64 | COc1ccc(C(=O)c2c(C(F)(F)F)oc3c2C(=O)c2ccccc2C3=O)cc1OC | active: 3.66 µM | 
65 | CC(C)CC(=O)Nc1cc([N+](=O)[O-])ccc1Cl |  | inactive: -7.85%
66 | COc1ccc(-c2csc3ncnc(N4CCN(S(=O)(=O)c5cccc(F)c5)CC4)c23)cc1 | inconclusive: 20.6 µM [inhibitor, single point] | 
